Laboratory results reported in paper PMC9957047, “A Role for the Interactions between Polδ and PCNA Revealed by Analysis of pol3-01 Yeast Mutants” (Genes, 2023).
No constants are given. Whether binding was seen depends on the method and setting. For some of these results: Binding seen in cells or lysates may run through a third protein. Some binding calls cover weakened binding; strength is not graded here. Where a sequence is shown, tags or fusion partners need not be part of it. Values belong to the molecule of their own block, whether it stands above or below them.

Amino acid sequences for entries named in this document (tags omitted).
UniProt P14284: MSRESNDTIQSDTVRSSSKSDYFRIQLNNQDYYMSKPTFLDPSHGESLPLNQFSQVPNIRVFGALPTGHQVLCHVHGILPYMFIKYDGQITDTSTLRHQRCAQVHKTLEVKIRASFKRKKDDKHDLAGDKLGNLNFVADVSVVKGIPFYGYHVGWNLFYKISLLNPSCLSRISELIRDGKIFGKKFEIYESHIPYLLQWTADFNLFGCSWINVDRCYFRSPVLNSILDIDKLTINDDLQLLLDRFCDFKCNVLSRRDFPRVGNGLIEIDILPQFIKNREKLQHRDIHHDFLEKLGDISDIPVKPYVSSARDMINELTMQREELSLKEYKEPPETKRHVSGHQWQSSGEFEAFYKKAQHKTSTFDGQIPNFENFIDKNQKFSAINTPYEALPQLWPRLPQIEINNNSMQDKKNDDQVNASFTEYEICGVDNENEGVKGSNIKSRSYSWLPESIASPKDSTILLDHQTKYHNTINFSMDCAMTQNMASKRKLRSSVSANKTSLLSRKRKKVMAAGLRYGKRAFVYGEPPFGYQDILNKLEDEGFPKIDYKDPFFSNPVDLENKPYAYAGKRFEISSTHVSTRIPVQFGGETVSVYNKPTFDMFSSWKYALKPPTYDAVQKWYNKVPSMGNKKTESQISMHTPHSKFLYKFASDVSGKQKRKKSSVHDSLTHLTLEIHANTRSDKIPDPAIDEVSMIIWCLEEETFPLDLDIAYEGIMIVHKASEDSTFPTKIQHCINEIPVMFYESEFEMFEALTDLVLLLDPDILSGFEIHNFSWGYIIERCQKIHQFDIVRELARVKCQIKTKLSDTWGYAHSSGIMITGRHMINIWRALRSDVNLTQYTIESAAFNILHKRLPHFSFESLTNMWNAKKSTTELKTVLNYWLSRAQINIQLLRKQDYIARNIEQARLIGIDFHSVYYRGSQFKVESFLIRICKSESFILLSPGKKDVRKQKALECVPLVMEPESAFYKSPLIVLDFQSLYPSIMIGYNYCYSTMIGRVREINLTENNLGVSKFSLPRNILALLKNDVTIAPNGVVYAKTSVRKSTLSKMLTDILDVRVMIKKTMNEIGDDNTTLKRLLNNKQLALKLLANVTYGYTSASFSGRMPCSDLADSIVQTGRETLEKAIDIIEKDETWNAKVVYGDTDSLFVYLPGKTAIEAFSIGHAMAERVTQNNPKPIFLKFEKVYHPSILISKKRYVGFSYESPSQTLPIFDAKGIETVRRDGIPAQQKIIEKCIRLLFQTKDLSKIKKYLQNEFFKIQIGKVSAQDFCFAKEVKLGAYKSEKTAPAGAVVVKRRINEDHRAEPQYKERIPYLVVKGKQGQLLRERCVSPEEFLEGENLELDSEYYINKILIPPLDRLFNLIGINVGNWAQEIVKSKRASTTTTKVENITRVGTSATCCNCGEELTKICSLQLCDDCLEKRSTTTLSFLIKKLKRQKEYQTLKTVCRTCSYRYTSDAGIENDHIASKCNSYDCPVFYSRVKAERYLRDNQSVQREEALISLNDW

How the values were obtained:
[1] = target: T1, Pol3-01 fused to the GAL4 DNA binding domain (pGBKT7 pol3-01) (S. cerevisiae) (UniProt P15436); experiment: two-hybrid; strain PJ69-4a; POL30 fused to the GAL4-activating domain (pACT2), POL3 alleles fused to the GAL4 DNA binding domain (pGBKT7); spotted on SD-Trp-Leu and SD-Trp-Leu-His plates, 3-4 days at 30 °C
T1 sequence: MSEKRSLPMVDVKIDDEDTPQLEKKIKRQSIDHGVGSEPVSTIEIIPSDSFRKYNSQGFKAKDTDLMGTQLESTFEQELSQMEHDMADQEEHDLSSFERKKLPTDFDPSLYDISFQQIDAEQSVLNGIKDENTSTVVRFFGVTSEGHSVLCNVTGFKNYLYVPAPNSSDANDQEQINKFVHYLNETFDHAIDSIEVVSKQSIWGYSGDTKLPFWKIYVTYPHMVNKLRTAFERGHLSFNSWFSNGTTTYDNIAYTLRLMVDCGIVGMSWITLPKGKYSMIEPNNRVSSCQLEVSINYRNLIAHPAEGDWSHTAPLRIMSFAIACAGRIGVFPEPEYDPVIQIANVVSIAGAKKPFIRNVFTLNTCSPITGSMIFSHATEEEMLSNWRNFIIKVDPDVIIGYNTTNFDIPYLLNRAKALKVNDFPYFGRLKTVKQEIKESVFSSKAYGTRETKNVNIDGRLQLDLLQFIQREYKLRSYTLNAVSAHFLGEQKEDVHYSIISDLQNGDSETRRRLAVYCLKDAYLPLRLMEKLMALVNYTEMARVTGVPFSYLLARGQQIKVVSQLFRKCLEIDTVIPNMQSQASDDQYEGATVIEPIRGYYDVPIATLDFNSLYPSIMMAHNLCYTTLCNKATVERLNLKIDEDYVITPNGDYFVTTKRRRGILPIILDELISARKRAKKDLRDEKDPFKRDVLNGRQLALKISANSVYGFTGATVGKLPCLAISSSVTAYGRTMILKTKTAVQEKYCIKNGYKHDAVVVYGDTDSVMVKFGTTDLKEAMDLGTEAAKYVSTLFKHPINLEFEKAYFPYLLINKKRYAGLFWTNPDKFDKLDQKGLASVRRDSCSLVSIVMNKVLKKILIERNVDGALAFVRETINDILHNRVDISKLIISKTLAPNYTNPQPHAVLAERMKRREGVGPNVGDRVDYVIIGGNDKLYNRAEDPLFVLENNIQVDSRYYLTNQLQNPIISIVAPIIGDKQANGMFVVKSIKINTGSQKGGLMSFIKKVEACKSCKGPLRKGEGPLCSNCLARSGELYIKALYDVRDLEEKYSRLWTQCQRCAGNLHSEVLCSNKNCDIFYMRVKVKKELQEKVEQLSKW

[2] = target: T2, HA-tagged Pol31 (pol31-HA) (S. cerevisiae) (UniProt P46957); experiment: co-IP; triply-tagged strains with pol3-01-MYC (pol3-01 background); mid-log cells; HA-tagged Pol31 immunoprecipitated with anti-HA antibodies; Western blot with anti-Myc for Pol3-01 and Rev3 (Figure 6A)
T2 sequence: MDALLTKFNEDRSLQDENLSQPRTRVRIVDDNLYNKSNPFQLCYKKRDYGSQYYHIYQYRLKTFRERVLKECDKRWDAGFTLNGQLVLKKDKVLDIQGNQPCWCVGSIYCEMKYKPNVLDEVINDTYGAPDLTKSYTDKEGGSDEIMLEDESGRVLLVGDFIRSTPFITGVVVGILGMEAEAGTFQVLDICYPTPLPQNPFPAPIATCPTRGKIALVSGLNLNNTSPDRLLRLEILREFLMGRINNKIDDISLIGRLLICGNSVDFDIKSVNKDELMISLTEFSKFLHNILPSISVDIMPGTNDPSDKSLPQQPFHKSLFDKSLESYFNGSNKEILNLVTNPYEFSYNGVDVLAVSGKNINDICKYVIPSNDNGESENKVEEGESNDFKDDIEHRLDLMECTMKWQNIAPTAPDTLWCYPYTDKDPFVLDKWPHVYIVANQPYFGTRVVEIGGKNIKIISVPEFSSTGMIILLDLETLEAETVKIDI

[3] = target: T3, HA-tagged Pol31-K358E (pol31-K358E-HA) (S. cerevisiae) (UniProt P46957); experiment: as above
T3 sequence: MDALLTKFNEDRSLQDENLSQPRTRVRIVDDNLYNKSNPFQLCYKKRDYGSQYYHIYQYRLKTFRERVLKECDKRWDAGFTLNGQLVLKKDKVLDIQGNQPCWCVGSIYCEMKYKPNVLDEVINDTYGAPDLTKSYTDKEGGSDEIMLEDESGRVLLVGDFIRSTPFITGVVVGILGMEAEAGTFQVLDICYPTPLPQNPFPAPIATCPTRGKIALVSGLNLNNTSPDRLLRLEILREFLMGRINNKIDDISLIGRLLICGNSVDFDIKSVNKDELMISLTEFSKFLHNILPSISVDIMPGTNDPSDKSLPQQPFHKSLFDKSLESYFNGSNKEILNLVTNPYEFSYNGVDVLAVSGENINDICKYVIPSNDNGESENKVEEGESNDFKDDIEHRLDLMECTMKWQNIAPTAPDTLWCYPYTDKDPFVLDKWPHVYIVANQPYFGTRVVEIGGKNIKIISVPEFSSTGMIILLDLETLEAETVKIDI

[4] = target: T2, HA-tagged Pol31 (pol31-HA) (S. cerevisiae); experiment: co-IP; triply-tagged strains with POL3-MYC (wild-type POL3 background); mid-log cells; HA-tagged Pol31 immunoprecipitated with anti-HA antibodies; Western blot with anti-Myc for Pol3 and Rev3 (Figure 6A)
[5] = target: T3, HA-tagged Pol31-K358E (pol31-K358E-HA) (S. cerevisiae); experiment: as above
[6] = target: T4, Pol3 fused to the GAL4 DNA binding domain (pGBKT7 POL3) (S. cerevisiae), P15436; experiment: two-hybrid; strain PJ69-4a; POL30 fused to the GAL4-activating domain (pACT2), POL3 alleles fused to the GAL4 DNA binding domain (pGBKT7); spotted on SD-Trp-Leu and SD-Trp-Leu-His plates, 3-4 days at 30 °C; settings: remark: other sources report otherwise
T4 chain: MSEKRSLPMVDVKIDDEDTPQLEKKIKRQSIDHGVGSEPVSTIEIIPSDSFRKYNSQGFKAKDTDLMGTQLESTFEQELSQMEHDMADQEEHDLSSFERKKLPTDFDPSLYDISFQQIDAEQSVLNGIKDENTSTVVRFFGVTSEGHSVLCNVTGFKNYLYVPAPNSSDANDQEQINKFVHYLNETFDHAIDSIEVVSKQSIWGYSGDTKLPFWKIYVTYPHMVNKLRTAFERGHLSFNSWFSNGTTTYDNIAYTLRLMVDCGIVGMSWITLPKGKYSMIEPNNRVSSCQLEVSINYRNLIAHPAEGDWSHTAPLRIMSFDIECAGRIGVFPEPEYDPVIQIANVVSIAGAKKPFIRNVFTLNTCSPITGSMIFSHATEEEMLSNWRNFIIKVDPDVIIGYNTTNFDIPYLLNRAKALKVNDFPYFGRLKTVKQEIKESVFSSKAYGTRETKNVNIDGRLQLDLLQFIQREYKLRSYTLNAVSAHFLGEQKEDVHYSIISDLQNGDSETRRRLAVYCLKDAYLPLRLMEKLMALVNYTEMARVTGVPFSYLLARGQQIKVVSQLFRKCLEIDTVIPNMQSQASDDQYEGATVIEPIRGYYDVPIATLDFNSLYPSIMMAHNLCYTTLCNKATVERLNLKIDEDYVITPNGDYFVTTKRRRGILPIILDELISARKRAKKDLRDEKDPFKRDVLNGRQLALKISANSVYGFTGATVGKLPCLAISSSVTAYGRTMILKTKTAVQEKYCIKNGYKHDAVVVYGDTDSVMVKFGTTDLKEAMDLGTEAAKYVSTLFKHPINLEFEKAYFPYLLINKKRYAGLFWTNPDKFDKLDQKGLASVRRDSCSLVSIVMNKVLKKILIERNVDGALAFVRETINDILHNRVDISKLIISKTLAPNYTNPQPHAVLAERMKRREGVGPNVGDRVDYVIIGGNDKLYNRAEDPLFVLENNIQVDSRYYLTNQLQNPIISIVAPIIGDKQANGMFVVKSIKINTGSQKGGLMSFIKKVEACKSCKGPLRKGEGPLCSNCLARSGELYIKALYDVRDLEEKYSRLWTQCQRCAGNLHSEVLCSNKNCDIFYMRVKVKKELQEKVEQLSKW

[7] = target: T5, PCNA (Pol30) immunoprecipitated in the co-IP of Figure 2C (S. cerevisiae), P15873; experiment: co-IP; PCNA immunoprecipitated from yeast extract (methods: 2 μg anti-PCNA antibody, overnight at 4 °C, washes with lysis buffer at 220 mM NaCl); level of FLAG-tagged Pol3 or Pol3-01 co-IPed measured (Figure 2C); settings: remark: other sources report otherwise
T5 chain: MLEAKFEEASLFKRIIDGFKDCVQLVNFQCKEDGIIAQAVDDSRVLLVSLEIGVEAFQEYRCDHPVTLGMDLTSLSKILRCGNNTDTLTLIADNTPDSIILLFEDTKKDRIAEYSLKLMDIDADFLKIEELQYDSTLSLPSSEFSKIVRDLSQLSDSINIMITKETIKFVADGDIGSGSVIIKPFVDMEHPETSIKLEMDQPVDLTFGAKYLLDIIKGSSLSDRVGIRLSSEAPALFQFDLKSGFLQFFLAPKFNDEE

Molecule: Pol30 (PCNA) fused to the GAL4 activating domain (pACT2 carrying POL30) (from UniProt P15873 1-258)
- binding [1]: binds weakly

Molecule: Myc-tagged Rev3 (REV3-MYC) (from UniProt P14284 1-1504)
- binding [2]: binds
- binding [3]: binds
- binding [4]: binds weakly
- binding [5]: binds

Other lines, results leading:

- binding [6]: binds
B1: Pol30 (PCNA) fused to the GAL4 activating domain (pACT2 carrying POL30), P15873 1-258 (protein)
chain: MLEAKFEEASLFKRIIDGFKDCVQLVNFQCKEDGIIAQAVDDSRVLLVSLEIGVEAFQEYRCDHPVTLGMDLTSLSKILRCGNNTDTLTLIADNTPDSIILLFEDTKKDRIAEYSLKLMDIDADFLKIEELQYDSTLSLPSSEFSKIVRDLSQLSDSINIMITKETIKFVADGDIGSGSVIIKPFVDMEHPETSIKLEMDQPVDLTFGAKYLLDIIKGSSLSDRVGIRLSSEAPALFQFDLKSGFLQFFLAPKFNDEE

- binding [7]: binds
B2: FLAG-tagged Pol3 (Pol3-FLAG) of the co-IP of Figure 2C, P15436 1-1097 (protein)
chain: MSEKRSLPMVDVKIDDEDTPQLEKKIKRQSIDHGVGSEPVSTIEIIPSDSFRKYNSQGFKAKDTDLMGTQLESTFEQELSQMEHDMADQEEHDLSSFERKKLPTDFDPSLYDISFQQIDAEQSVLNGIKDENTSTVVRFFGVTSEGHSVLCNVTGFKNYLYVPAPNSSDANDQEQINKFVHYLNETFDHAIDSIEVVSKQSIWGYSGDTKLPFWKIYVTYPHMVNKLRTAFERGHLSFNSWFSNGTTTYDNIAYTLRLMVDCGIVGMSWITLPKGKYSMIEPNNRVSSCQLEVSINYRNLIAHPAEGDWSHTAPLRIMSFDIECAGRIGVFPEPEYDPVIQIANVVSIAGAKKPFIRNVFTLNTCSPITGSMIFSHATEEEMLSNWRNFIIKVDPDVIIGYNTTNFDIPYLLNRAKALKVNDFPYFGRLKTVKQEIKESVFSSKAYGTRETKNVNIDGRLQLDLLQFIQREYKLRSYTLNAVSAHFLGEQKEDVHYSIISDLQNGDSETRRRLAVYCLKDAYLPLRLMEKLMALVNYTEMARVTGVPFSYLLARGQQIKVVSQLFRKCLEIDTVIPNMQSQASDDQYEGATVIEPIRGYYDVPIATLDFNSLYPSIMMAHNLCYTTLCNKATVERLNLKIDEDYVITPNGDYFVTTKRRRGILPIILDELISARKRAKKDLRDEKDPFKRDVLNGRQLALKISANSVYGFTGATVGKLPCLAISSSVTAYGRTMILKTKTAVQEKYCIKNGYKHDAVVVYGDTDSVMVKFGTTDLKEAMDLGTEAAKYVSTLFKHPINLEFEKAYFPYLLINKKRYAGLFWTNPDKFDKLDQKGLASVRRDSCSLVSIVMNKVLKKILIERNVDGALAFVRETINDILHNRVDISKLIISKTLAPNYTNPQPHAVLAERMKRREGVGPNVGDRVDYVIIGGNDKLYNRAEDPLFVLENNIQVDSRYYLTNQLQNPIISIVAPIIGDKQANGMFVVKSIKINTGSQKGGLMSFIKKVEACKSCKGPLRKGEGPLCSNCLARSGELYIKALYDVRDLEEKYSRLWTQCQRCAGNLHSEVLCSNKNCDIFYMRVKVKKELQEKVEQLSKW
